Laboratory results: the supplement of paper PMC10849652
Some of the results follow.

Chains of the proteins cited; added tags and fusions are not shown. Lines headed by an entry give the natural chain unless they say otherwise; changes in a name come on top.
UniProt Q8TDI0: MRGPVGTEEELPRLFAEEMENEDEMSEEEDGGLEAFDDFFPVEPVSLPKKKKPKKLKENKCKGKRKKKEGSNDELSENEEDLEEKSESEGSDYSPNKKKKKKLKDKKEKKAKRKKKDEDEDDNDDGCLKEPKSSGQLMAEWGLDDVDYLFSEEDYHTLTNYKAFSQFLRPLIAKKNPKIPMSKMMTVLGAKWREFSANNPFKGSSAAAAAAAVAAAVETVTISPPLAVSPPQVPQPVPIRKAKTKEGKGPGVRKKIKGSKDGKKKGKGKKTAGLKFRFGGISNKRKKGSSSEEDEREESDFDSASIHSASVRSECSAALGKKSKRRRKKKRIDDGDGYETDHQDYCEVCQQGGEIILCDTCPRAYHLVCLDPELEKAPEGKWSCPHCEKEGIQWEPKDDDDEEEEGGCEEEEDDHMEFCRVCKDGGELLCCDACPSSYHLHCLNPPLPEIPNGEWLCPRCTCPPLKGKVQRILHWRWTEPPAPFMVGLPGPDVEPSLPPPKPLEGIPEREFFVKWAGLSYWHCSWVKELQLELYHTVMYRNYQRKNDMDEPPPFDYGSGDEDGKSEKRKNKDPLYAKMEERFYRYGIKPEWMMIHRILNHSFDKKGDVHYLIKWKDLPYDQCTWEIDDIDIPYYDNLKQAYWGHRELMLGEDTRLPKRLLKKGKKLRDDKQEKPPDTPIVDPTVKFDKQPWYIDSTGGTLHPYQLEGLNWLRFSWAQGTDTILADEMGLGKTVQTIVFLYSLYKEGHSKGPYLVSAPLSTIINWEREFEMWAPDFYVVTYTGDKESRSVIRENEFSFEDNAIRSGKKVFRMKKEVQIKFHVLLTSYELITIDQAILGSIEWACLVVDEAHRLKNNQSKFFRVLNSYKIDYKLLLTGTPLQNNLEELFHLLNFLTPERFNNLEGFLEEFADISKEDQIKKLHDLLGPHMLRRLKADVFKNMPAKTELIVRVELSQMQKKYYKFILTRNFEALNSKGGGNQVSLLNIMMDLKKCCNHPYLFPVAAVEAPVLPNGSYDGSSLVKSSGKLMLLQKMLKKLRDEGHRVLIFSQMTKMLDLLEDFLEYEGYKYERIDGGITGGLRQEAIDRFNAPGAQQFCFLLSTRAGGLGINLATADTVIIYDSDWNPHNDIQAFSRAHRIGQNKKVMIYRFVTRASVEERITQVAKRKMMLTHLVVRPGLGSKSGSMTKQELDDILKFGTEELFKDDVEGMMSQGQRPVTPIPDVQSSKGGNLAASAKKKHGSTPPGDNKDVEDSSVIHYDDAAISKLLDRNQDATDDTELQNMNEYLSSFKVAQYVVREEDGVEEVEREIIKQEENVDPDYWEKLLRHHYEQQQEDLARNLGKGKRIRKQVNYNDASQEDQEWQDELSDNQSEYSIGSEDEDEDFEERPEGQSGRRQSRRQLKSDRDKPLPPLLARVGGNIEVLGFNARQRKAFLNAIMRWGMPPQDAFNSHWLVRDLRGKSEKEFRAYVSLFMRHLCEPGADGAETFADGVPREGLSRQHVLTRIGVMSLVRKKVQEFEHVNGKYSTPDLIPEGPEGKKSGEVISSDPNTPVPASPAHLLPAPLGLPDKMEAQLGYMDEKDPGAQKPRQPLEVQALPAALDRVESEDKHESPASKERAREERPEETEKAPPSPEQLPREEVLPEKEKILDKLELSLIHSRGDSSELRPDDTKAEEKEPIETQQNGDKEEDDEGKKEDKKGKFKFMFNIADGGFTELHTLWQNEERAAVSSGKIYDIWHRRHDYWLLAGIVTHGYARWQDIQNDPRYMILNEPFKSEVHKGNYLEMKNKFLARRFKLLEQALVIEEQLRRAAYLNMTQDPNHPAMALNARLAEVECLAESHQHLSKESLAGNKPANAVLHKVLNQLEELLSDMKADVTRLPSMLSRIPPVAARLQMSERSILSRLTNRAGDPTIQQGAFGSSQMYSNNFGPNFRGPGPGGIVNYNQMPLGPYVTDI
UniProt Q96S66: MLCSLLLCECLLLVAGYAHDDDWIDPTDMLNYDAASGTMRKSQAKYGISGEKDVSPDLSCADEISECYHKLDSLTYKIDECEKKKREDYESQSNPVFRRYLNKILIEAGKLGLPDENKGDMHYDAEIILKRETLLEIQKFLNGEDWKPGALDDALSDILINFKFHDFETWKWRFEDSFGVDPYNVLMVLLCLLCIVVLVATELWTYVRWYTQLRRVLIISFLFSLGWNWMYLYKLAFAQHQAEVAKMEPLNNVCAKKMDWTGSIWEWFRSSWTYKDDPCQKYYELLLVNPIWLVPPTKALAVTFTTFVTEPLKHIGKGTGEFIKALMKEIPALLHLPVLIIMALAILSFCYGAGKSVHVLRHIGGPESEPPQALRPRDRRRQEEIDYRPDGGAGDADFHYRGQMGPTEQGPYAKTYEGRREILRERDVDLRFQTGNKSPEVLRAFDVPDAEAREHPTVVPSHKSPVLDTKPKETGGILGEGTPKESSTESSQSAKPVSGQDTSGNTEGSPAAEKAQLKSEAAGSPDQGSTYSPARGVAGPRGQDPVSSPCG
UniProt Q6FI81: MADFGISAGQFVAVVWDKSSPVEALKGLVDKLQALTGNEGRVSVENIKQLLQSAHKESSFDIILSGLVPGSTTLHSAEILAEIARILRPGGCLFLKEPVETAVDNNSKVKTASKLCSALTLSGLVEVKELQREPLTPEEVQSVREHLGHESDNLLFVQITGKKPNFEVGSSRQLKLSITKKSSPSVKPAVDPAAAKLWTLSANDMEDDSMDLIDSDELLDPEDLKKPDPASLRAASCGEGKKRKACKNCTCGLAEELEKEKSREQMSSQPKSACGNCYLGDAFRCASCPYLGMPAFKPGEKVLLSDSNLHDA
UniProt P62633: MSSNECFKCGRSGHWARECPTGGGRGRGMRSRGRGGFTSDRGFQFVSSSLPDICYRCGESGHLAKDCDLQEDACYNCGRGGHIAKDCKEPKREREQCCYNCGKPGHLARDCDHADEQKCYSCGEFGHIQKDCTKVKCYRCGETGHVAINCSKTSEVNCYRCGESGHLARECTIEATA
UniProt Q9BY43: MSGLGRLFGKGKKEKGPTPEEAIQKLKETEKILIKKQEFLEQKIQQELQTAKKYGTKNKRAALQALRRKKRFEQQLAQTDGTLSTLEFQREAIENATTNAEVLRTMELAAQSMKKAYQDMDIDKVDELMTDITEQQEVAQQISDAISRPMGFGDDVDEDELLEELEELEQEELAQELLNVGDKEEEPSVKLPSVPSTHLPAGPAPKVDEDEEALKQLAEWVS
UniProt P30085: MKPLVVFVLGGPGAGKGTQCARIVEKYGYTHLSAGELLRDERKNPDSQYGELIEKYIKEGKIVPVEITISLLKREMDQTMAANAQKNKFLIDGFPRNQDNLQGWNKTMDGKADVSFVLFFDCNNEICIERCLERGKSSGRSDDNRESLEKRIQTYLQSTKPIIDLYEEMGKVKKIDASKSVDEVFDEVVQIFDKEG
UniProt O96005: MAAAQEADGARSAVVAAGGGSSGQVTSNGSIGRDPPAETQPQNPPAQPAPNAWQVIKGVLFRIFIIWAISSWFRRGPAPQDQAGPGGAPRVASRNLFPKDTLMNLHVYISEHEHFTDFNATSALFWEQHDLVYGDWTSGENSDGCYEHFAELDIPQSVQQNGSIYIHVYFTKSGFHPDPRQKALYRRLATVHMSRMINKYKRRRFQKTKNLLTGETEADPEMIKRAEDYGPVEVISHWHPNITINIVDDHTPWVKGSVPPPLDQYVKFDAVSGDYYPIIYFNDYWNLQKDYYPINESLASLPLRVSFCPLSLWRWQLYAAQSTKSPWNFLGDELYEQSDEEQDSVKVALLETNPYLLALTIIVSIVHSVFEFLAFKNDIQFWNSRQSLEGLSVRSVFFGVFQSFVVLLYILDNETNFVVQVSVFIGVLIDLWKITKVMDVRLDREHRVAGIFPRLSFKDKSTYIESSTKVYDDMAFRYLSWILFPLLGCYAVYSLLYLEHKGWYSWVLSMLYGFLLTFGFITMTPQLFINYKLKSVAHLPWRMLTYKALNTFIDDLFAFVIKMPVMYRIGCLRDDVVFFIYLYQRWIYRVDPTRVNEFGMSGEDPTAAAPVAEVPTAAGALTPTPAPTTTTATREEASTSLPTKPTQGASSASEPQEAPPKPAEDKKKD
UniProt Q96CF2: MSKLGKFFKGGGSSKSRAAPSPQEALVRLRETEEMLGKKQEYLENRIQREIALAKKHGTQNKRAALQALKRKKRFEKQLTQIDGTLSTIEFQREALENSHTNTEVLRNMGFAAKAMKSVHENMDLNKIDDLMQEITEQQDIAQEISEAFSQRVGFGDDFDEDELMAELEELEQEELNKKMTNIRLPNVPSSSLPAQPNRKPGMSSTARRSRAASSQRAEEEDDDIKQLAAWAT
UniProt P54105: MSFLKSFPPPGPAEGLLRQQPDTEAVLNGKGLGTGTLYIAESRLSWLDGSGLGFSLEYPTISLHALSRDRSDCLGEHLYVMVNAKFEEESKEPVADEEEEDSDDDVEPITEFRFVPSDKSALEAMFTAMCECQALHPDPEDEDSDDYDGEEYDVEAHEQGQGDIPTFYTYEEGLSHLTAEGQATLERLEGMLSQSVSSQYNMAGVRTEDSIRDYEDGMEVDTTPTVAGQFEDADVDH
UniProt P61024, whole entry, looked up: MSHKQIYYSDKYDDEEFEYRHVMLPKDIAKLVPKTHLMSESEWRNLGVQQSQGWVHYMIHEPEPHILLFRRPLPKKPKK
UniProt Q7LBR1: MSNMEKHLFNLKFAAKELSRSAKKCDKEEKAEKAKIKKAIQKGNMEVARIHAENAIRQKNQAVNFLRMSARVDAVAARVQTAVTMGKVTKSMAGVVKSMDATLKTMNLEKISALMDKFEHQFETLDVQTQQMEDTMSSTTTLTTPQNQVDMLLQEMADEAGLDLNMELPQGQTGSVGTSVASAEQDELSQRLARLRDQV
UniProt Q9ULV3: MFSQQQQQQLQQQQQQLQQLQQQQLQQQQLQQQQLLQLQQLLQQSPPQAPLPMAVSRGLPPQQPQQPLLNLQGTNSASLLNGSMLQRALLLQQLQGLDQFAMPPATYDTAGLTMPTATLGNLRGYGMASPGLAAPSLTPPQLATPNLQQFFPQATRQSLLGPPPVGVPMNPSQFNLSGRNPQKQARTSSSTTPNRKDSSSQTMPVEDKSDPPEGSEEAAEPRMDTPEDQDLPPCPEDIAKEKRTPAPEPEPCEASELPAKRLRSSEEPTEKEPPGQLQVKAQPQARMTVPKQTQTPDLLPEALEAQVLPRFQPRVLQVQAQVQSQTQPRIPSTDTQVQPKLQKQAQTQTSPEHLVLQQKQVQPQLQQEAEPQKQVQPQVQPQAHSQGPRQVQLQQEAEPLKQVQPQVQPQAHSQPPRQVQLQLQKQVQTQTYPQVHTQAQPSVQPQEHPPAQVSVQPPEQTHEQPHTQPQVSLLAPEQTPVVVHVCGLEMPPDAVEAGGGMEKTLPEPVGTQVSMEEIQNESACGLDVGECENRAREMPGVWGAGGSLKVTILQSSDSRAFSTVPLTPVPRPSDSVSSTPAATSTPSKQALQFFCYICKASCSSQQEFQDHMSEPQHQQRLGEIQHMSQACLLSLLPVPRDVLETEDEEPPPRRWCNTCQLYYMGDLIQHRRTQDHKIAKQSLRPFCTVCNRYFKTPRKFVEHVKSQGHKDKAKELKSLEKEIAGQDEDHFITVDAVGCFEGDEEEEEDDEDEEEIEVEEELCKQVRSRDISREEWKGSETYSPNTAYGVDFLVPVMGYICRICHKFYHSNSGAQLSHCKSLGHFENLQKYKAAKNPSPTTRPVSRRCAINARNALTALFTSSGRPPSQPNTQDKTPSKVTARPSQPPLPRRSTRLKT
UniProt Q96DG6: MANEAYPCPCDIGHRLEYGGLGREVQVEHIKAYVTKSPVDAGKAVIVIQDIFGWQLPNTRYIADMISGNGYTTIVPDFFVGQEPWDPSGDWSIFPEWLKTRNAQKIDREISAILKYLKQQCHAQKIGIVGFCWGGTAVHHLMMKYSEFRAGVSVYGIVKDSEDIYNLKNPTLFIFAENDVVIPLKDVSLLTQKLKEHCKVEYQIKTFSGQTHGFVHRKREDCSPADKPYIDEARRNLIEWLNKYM
UniProt Q9NRG0: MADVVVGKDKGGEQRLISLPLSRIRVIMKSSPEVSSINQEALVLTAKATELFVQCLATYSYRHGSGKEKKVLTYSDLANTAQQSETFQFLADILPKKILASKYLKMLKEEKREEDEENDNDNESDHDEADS

How the values were obtained:
Experiment in all cases: log2 fold change, soluble protein after heating vs DMSO (PISA); higher = thermal stabilisation; K562 lysate, 10 uM; active = over 0.2 and 3.5 SD of the protein, either way, in both replicates (recomputed)
[1] = compound: CCCS(=O)(=O)Nc1ccc(F)c(C(=O)c2c[nH]c3ncc(-c4ccc(Cl)cc4)cc23)c1F [vemurafenib]
Summary of the method: (§1)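 To prepare the extract, K562 pellets were dounce-homogenised in PBS pH 7.4 with 1 mM MgCl2, giving crude material at 1 mg/mL protein. This was treated with 10 μM compound for 30 min, then heated in aliquots for 3 min over 48°C-58°C before pooling and addition of NP-40 to 0.5% at 4°C. Centrifugation at 21,000xg for 90 min left soluble protein in the supernatant, which TMTpro 16plex LC-MS/MS quantified with equalised channel sums. Results are log-two fold changes in thermal stability compared with solvent controls, from duplicates.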

[2] = compound: CCCS(=O)(=O)Nc1ccc(F)c(C(=O)c2c[nH]c3ncc(Cl)cc23)c1F
Summary of the method: as §1

[3] = compound: CCN(CCCOc1ccc2c(Nc3cc(CC(=O)Nc4cccc(F)c4)[nH]n3)ncnc2c1)CCOP(=O)(O)O [barasertib]
Summary of the method: as §1

[4] = compound: CC[C@@H]1C(=O)N(C)c2cnc(Nc3ccc(C(=O)NC4CCN(C)CC4)cc3OC)nc2N1C1CCCC1
Summary of the method: as §1

[5] = compound: CC[C@@H]1C(=O)N(C)c2cnc(Nc3ccc(C(=O)N[C@H]4CC[C@H](N5CCN(CC6CC6)CC5)CC4)cc3OC)nc2N1C(C)C [volasertib]
Summary of the method: as §1

[6] = compound: CCn1c(C(=O)N(C2CC2)C2CC2)cc2c3c(ncn3C)c(Nc3cc(C)n(C)n3)nc21
Summary of the method: as §1

[7] = compound: CCn1cc(-c2ccnc3[nH]c(-c4cccc(CN(C)C)c4)cc23)c(-c2ccc(NC(=O)N(C)C)cc2)n1
Summary of the method: as §1

[8] = compound: CN1CCC(CNc2ccc3ncc(-c4cccc(OC(F)(F)F)c4)n3n2)CC1
Summary of the method: as §1

[9] = compound: CN1CCN(CCOc2cc(OC3CCOCC3)c3c(Nc4c(Cl)ccc5c4OCO5)ncnc3c2)CC1 [saracatinib]
Summary of the method: as §1

[10] = compound: CN1CCN(c2nc(C3=C(c4c[nH]c5ccccc45)C(=O)NC3=O)c3ccccc3n2)CC1 [sotrastaurin]
Summary of the method: as §1

[11] = compound: CN1CC[C@H](c2c(O)cc(O)c3c(=O)cc(-c4ccccc4Cl)oc23)[C@H](O)C1 [alvocidib]
Summary of the method: as §1

[12] = compound: CN1CCc2c(c3ccccc3n2Cc2ccc(C(=O)NO)cc2)C1 [Tubastatin A]
Summary of the method: as §1

[13] = compound: CNC(=O)C1=CC=CC=C1NC2=NC(=NC=C2Cl)NC3=C(C=C(C=C3)N4CCOCC4)OC
Summary of the method: as §1

[14] = compound: CNC(=O)c1ccc(Nc2ncc(C(F)(F)F)c(NCc3nccnc3N(C)S(C)(=O)=O)n2)cc1 [defactinib]
Summary of the method: as §1

[15] = compound: CNc1nc(-c2ccc3c(N)n[nH]c3c2)cc(N2C[C@@H](C(=O)NC3CCCCC3)CC[C@H]2C)n1
Summary of the method: as §1

[16] = compound: COC(=O)N[C@@H](C)CNc1nccc(-c2cn(C(C)C)nc2-c2cc(Cl)cc(NS(C)(=O)=O)c2F)n1 [encorafenib]
Summary of the method: as §1

[17] = compound: COC(=O)[C@H](CCSC)NC(=O)C1=C(C=C(C=C1)NC[C@H](CS)N)C2=CC=CC=C2
Summary of the method: as §1

[18] = compound: COc1cc(Nc2ncc3c(n2)-c2ccc(Cl)cc2C(c2c(F)cccc2OC)=NC3)ccc1C(=O)O [alisertib]
Summary of the method: as §1

[19] = compound: COc1cc2nc(-c3cc(F)ccc3O)nc(N[C@@H]3CNC[C@H]3C(C)(C)O)c2cc1OC
Summary of the method: as §1

[20] = compound: COc1cc2ncnc(Nc3ccc(F)c(Cl)c3)c2cc1OCCCN1CCOCC1 [gefitinib]
Summary of the method: as §1

| Target | log2 fold change [1] | log2 fold change [2] | log2 fold change [3] | log2 fold change [4] | log2 fold change [5] | log2 fold change [6] | log2 fold change [7] | log2 fold change [8] | log2 fold change [9] | log2 fold change [10] | log2 fold change [11] | log2 fold change [12] | log2 fold change [13] | log2 fold change [14] | log2 fold change [15] | log2 fold change [16] | log2 fold change [17] | log2 fold change [18] | log2 fold change [19] | log2 fold change [20] |
| --- | --- | --- | --- | --- | --- | --- | --- | --- | --- | --- | --- | --- | --- | --- | --- | --- | --- | --- | --- | --- |
| CHD5 (UniProt Q8TDI0) | inactive: -0.034 | inactive: 0.022 | inactive: 0.034 | inactive: 0.165 | inactive: -0.028 | inactive: -0.026 | inactive: 0.051 | inactive: -0.019 | inactive: 0.026 | inactive: 0.026 | inactive: -0.005 | inactive: -0.022 | inactive: 0 | inactive: -0.042 | inactive: 0.037 | inactive: 0.024 | inactive: 0.033 | inactive: -0.016 | inactive: -0.009 | inactive: -0.001 |
| CLCC1 (UniProt Q96S66) | inactive: 0.001 | inactive: 0.011 | inactive: 0.017 | inactive: 0.01 | inactive: 0.031 | inactive: 0.026 | inactive: -0.07 | inactive: 0.059 | inactive: 0.036 | inactive: -0.03 | inactive: -0.041 | inactive: -0.011 | inactive: 0.02 | inactive: 0.003 | inactive: -0.026 | inactive: 0.028 | inactive: -0.078 | inactive: -0.014 | inactive: -0.008 | inactive: 0.009 |
| CIAPIN1 (UniProt Q6FI81) | inactive: -0.003 | inactive: 0 | inactive: -0.02 | inactive: 0.037 | inactive: 0.016 | inactive: -0.016 | inactive: -0.064 | inactive: 0.039 | inactive: 0.011 | inactive: 0.009 | inactive: 0.012 | inactive: 0.038 | inactive: 0.007 | inactive: -0.022 | inactive: 0.019 | inactive: 0 | inactive: -0.022 | inactive: -0.009 | inactive: 0.009 | inactive: -0.026 |
| CIT isoform 4 (UniProt O14578) | inactive: -0.023 | inactive: 0.003 | inactive: 0.026 | inactive: 0.013 | inactive: -0.067 | inactive: 0.005 | inactive: 0.37 | inactive: -0.025 | inactive: 0.035 | inactive: -0.008 | inactive: -0.059 | inactive: -0.044 | inactive: 0.029 | inactive: 0.001 | inactive: 0.064 | inactive: 0.007 | inactive: -0.065 | inactive: -0.011 | inactive: 0.036 | inactive: 0.063 |
| CHCHD1 (UniProt Q96BP2) | inactive: 0.157 | inactive: -0.025 | inactive: -0.002 | inactive: 0.028 | inactive: -0.001 | inactive: -0.075 | active: 1.08 | inactive: -0.338 | inactive: 0.032 | inactive: 0.16 | inactive: 0.494 | inactive: 0.046 | inactive: 0.028 | inactive: -0.033 | inactive: 0.087 | inactive: -0.018 | inactive: -0.042 | inactive: 0.003 | inactive: 0.023 | inactive: 0.228 |
| CNBP isoform 4 (UniProt P62633) | inactive: -0.05 | inactive: 0.045 | inactive: -0.032 | inactive: -0.118 | inactive: 0.086 | inactive: 0.034 | inactive: -0.063 | inactive: 0.039 | inactive: 0.17 | inactive: -0.334 | inactive: 0 | inactive: 0.135 | inactive: -0.022 | inactive: 0.011 | inactive: 0.155 | inactive: 0.026 | inactive: -0.106 | inactive: -0.033 | inactive: -0.058 | inactive: -0.295 |
| CHMP4A isoform 2 (UniProt Q9BY43) | inactive: 0 | inactive: -0.002 | inactive: -0.053 | inactive: 0.064 | inactive: 0.039 | inactive: -0.002 | active: -0.278 | inactive: 0.222 | inactive: 0.048 | inactive: 0.024 | inactive: -0.096 | inactive: 0.048 | inactive: -0.01 | inactive: 0.007 | inactive: 0.039 | inactive: 0.026 | inactive: -0.001 | inactive: 0.028 | inactive: 0.043 | inactive: 0.041 |
| CMPK1 (UniProt P30085) | inactive: -0.071 | inactive: -0.047 | inactive: -0.033 | inactive: -0.043 | inactive: -0.001 | inactive: 0.008 | inactive: -0.097 | inactive: 0.066 | inactive: 0.027 | inactive: 0.031 | inactive: 0.003 | inactive: -0.001 | inactive: -0.017 | inactive: 0.038 | inactive: -0.07 | inactive: 0 | inactive: -0.03 | inactive: 0.033 | inactive: -0.019 | inactive: 0.008 |
| CLPTM1 (UniProt O96005) | inactive: 0.047 | inactive: 0.007 | inactive: 0.04 | inactive: -0.014 | inactive: -0.066 | inactive: -0.033 | inactive: -0.017 | inactive: 0.088 | inactive: 0.006 | inactive: 0.058 | inactive: -0.086 | inactive: -0.103 | inactive: -0.007 | inactive: -0.02 | inactive: -0.005 | inactive: 0.004 | inactive: 0.006 | inactive: 0.032 | inactive: -0.025 | inactive: 0.031 |
| CHMP4C (UniProt Q96CF2) | inactive: -0.02 | inactive: 0.001 | inactive: -0.021 | inactive: 0.05 | inactive: 0.006 | inactive: -0.04 | inactive: 0.534 | inactive: 0.06 | inactive: 0 | inactive: -0.042 | inactive: -0.099 | inactive: 0.039 | inactive: 0.029 | inactive: 0.036 | inactive: 0.01 | inactive: 0.056 | inactive: -0.036 | inactive: -0.016 | inactive: 0.057 | inactive: 0.001 |
| CLNS1A (UniProt P54105) | inactive: 0.005 | inactive: 0.022 | inactive: -0.046 | inactive: 0.058 | inactive: 0.019 | inactive: -0.044 | inactive: -0.016 | inactive: 0.043 | inactive: -0.026 | inactive: 0.018 | inactive: -0.002 | inactive: 0.01 | inactive: 0.033 | inactive: 0.013 | inactive: 0.041 | inactive: -0.001 | inactive: -0.064 | inactive: -0.024 | inactive: -0.003 | inactive: -0.035 |
| CKS1B (UniProt P61024) | inactive: -0.047 | inactive: -0.029 | inactive: 0.029 | inactive: -0.031 | inactive: -0.018 | inactive: -0.017 | active: 0.391 | inactive: -0.268 | inactive: 0.044 | inactive: 0.025 | inactive: 0.117 | inactive: -0.001 | inactive: 0.032 | inactive: 0.075 | inactive: -0.055 | inactive: 0.04 | inactive: -0.014 | inactive: -0.031 | inactive: -0.024 | inactive: 0.071 |
| CHMP1B (UniProt Q7LBR1) | inactive: -0.02 | inactive: -0.027 | inactive: 0.002 | inactive: -0.002 | inactive: 0.029 | inactive: -0.015 | inactive: 0.039 | inactive: -0.067 | inactive: -0.036 | inactive: 0.003 | inactive: -0.014 | inactive: 0.016 | inactive: -0.023 | inactive: 0.002 | inactive: -0.003 | inactive: 0 | inactive: -0.022 | inactive: 0.07 | inactive: 0.049 | inactive: 0.064 |
| CIZ1 (UniProt Q9ULV3) | inactive: 0.003 | inactive: -0.003 | inactive: 0.015 | inactive: 0.104 | inactive: 0 | inactive: -0.084 | inactive: -0.003 | inactive: 0.008 | inactive: -0.013 | inactive: -0.001 | inactive: -0.032 | inactive: 0.017 | inactive: 0.002 | inactive: -0.005 | inactive: 0.025 | inactive: 0.036 | inactive: 0.002 | inactive: 0.023 | inactive: 0.072 | inactive: 0.014 |
| CMBL (UniProt Q96DG6) | inactive: -0.053 | inactive: -0.027 | inactive: -0.026 | inactive: 0.081 | inactive: 0.183 | inactive: 0.004 | inactive: -0.174 | inactive: 0.129 | inactive: -0.016 | inactive: -0.015 | inactive: 0.006 | inactive: 0.001 | inactive: -0.012 | inactive: -0.051 | inactive: 0.013 | inactive: -0.051 | inactive: -0.009 | inactive: 0.001 | inactive: 0.038 | inactive: 0.03 |
| CHRAC1 (UniProt Q9NRG0) | inactive: -0.024 | inactive: 0.009 | inactive: -0.005 | inactive: 0.015 | inactive: -0.037 | inactive: 0.07 | inactive: -0.059 | inactive: 0.048 | inactive: -0.019 | inactive: 0.003 | inactive: 0.012 | inactive: 0.077 | inactive: -0.119 | inactive: -0.011 | inactive: -0.045 | inactive: -0.014 | inactive: -0.083 | inactive: 0.01 | inactive: 0.014 | inactive: -0.029 |

Given with bars between the fields: entries from further up
Target | log2 fold change [1] | log2 fold change [2] | log2 fold change [3] | log2 fold change [4] | log2 fold change [5] | log2 fold change [6] | log2 fold change [7] | log2 fold change [8] | log2 fold change [9] | log2 fold change [10] | log2 fold change [11] | log2 fold change [12] | log2 fold change [13] | log2 fold change [14] | log2 fold change [15] | log2 fold change [16] | log2 fold change [17] | log2 fold change [18] | log2 fold change [19] | log2 fold change [20]
CMPK1 (UniProt P30085) | inactive: -0.071 | inactive: -0.047 | inactive: -0.033 | inactive: -0.043 | inactive: -0.001 | inactive: 0.008 | inactive: -0.097 | inactive: 0.066 | inactive: 0.027 | inactive: 0.031 | inactive: 0.003 | inactive: -0.001 | inactive: -0.017 | inactive: 0.038 | inactive: -0.07 | inactive: 0 | inactive: -0.03 | inactive: 0.033 | inactive: -0.019 | inactive: 0.008
CLPTM1 (UniProt O96005) | inactive: 0.047 | inactive: 0.007 | inactive: 0.04 | inactive: -0.014 | inactive: -0.066 | inactive: -0.033 | inactive: -0.017 | inactive: 0.088 | inactive: 0.006 | inactive: 0.058 | inactive: -0.086 | inactive: -0.103 | inactive: -0.007 | inactive: -0.02 | inactive: -0.005 | inactive: 0.004 | inactive: 0.006 | inactive: 0.032 | inactive: -0.025 | inactive: 0.031
